± gives the standard deviation of the averaged measurements. The list shows a part of the results, in another mix than the full data.
Compound: Nc1ncnc2c1ncn2[C@@H]1O[C@H](COP(=O)(O)OP(=O)(O)NP(=O)(O)O)[C@@H](O)[C@H]1O [adenylyl imidodiphosphate]
Experiment: NP40-soluble protein abundance relative to vehicle (solubility fold change) (ratio); higher = more soluble protein in presence of AMP-PNP
In short: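 Crude Jurkat lysate, prepared by Dounce homogenisation, was exposed to eight concentrations from 0.1 to 10 mM for 10 min at room temperature and then 3 min at 37 °C. Solubilisation used 0.8% NP40 with benzonase for 60 min at 4 °C, followed by ultracentrifugation and TMT labelling of the supernatant for LC-MS/MS. After vsn normalisation of intensities, each value is the fold change against the detergent-processed vehicle within each replicate, across three independent experiments.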

Chains of the proteins cited; added tags and fusions are not shown. Lines headed by an entry give the natural chain unless they say otherwise; changes in a name come on top.
UniProt Q8TB52: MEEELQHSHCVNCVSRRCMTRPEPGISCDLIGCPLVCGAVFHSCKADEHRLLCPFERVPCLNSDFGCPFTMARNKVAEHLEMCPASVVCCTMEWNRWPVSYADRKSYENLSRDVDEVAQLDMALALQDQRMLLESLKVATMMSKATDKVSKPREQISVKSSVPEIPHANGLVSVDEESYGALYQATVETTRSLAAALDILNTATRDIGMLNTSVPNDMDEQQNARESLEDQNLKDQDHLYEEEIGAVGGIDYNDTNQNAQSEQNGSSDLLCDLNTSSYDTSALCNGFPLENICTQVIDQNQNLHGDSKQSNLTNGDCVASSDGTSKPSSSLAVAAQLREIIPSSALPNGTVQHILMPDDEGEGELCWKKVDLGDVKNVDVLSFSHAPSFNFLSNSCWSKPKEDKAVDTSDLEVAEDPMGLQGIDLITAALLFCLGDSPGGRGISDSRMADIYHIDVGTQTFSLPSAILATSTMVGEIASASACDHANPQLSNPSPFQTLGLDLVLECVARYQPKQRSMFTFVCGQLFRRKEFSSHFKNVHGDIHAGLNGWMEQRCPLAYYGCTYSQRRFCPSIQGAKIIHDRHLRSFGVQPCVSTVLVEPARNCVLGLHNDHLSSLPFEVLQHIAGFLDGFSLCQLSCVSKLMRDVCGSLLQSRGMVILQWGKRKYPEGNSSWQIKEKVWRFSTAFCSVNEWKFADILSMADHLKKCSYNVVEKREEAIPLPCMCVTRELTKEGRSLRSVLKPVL
UniProt Q8TDD1, whole entry: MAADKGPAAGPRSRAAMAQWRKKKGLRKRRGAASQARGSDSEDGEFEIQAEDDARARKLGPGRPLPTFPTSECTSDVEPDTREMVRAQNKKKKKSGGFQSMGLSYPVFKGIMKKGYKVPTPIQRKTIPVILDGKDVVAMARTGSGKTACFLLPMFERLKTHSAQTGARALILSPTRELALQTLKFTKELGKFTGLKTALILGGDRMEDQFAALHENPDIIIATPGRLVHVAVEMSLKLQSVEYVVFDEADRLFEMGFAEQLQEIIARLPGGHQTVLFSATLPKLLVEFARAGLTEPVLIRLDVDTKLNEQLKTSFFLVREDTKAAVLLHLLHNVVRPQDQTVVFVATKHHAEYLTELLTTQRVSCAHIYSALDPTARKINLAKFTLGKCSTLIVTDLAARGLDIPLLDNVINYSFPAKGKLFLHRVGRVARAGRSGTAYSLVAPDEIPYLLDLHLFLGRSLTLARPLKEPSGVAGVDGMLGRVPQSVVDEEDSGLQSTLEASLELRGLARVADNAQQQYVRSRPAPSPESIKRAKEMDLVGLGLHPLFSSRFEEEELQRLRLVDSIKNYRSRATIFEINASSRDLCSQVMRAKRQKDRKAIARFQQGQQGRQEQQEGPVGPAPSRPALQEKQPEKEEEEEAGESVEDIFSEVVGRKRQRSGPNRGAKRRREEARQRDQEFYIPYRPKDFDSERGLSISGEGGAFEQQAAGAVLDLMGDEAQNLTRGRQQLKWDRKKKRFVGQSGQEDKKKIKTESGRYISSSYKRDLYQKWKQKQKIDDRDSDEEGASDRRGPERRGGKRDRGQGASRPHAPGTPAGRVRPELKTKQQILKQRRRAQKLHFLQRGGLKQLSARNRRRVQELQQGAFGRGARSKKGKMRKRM
UniProt Q8NG31: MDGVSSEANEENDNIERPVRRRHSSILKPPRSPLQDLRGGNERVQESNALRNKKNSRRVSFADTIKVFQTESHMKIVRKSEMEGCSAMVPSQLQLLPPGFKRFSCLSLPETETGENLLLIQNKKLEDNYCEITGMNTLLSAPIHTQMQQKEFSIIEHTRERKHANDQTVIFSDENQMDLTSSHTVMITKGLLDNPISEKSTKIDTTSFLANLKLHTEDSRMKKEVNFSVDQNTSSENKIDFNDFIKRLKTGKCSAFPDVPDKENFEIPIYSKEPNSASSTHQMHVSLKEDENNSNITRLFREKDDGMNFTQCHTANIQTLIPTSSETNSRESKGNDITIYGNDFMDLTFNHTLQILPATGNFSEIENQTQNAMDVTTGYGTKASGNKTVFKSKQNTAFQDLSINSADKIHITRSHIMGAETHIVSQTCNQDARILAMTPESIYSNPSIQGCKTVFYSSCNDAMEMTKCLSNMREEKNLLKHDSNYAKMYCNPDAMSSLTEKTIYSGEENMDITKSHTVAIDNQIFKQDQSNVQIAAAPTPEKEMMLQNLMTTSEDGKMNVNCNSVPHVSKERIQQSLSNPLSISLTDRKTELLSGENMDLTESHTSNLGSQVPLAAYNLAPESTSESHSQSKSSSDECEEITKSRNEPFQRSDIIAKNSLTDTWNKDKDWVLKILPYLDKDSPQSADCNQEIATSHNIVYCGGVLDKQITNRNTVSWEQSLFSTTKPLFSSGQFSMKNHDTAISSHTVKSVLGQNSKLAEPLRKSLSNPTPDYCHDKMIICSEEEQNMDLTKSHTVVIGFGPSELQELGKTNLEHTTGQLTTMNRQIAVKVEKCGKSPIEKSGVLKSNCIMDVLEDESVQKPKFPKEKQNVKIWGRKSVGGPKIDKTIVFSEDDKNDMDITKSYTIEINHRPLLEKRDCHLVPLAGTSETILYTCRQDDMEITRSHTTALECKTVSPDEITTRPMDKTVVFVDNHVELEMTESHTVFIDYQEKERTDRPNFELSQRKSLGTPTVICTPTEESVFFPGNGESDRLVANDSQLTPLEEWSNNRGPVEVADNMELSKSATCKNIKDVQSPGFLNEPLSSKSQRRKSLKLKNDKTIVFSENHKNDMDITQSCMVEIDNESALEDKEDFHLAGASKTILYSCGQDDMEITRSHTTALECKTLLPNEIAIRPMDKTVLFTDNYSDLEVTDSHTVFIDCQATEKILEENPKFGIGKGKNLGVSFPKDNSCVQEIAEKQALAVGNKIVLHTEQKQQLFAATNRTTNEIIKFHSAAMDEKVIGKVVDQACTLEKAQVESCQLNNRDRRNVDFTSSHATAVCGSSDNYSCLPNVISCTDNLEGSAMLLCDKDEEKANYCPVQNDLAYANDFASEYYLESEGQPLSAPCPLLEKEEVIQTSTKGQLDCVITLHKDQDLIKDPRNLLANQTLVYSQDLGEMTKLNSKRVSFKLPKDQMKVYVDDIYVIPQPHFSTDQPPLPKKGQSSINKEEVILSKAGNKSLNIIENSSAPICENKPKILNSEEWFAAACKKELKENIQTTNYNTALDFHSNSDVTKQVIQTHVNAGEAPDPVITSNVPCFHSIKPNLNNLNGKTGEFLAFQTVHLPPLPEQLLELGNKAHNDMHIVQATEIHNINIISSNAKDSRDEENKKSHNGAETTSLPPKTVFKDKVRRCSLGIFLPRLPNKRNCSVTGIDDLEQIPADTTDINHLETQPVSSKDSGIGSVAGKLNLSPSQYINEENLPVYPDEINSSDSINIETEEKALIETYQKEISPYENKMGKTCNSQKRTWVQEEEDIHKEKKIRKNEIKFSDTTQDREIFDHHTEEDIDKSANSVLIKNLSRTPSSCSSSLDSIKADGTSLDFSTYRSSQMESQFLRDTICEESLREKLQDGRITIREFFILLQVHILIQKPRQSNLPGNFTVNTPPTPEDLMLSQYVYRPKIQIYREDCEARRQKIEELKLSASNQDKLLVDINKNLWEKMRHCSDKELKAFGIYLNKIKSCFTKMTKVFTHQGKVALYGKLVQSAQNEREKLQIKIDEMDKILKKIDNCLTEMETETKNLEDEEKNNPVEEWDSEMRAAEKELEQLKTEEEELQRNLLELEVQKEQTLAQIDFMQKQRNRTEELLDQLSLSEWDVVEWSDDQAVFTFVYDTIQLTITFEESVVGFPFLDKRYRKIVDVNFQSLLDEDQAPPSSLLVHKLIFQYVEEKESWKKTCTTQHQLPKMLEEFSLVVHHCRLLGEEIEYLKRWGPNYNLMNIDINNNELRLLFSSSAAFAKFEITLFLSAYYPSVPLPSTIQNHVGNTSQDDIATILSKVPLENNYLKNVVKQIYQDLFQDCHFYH
UniProt Q8NG08: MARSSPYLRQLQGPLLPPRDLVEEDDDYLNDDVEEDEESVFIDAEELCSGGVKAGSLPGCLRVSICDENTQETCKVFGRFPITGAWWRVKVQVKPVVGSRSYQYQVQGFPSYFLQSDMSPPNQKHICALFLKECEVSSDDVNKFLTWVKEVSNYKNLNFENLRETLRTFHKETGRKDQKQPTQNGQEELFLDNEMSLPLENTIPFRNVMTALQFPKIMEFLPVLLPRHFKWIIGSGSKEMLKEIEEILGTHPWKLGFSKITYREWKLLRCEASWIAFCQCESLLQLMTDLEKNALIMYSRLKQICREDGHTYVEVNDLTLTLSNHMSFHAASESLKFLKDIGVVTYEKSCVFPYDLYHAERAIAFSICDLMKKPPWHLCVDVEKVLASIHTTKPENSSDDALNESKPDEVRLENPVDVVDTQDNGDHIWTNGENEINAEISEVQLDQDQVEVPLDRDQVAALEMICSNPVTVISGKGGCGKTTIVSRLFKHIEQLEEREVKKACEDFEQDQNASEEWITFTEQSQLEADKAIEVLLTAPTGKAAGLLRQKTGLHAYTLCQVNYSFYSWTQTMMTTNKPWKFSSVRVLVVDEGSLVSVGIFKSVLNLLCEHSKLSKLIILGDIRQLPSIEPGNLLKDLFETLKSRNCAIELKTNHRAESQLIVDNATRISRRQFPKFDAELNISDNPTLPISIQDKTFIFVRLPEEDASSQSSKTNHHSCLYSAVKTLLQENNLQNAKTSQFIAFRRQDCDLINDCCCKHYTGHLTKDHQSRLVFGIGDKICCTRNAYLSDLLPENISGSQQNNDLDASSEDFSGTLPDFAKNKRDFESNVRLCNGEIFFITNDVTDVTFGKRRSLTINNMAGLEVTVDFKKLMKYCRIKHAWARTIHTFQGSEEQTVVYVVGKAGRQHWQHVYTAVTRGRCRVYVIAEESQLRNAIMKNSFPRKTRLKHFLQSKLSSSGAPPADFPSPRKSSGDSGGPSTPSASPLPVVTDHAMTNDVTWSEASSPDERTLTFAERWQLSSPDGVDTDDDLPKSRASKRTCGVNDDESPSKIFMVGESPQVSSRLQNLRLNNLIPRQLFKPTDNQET
UniProt Q8TBZ6: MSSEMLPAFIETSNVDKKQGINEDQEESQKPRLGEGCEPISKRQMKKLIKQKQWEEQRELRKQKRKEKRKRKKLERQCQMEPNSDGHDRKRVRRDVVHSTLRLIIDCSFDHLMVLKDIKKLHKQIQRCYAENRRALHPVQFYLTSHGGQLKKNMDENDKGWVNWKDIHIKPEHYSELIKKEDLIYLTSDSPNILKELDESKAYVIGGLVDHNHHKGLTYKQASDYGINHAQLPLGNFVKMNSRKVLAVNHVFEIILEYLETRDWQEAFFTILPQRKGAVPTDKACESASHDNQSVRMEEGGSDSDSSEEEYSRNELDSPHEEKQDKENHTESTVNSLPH
UniProt Q8WUM0: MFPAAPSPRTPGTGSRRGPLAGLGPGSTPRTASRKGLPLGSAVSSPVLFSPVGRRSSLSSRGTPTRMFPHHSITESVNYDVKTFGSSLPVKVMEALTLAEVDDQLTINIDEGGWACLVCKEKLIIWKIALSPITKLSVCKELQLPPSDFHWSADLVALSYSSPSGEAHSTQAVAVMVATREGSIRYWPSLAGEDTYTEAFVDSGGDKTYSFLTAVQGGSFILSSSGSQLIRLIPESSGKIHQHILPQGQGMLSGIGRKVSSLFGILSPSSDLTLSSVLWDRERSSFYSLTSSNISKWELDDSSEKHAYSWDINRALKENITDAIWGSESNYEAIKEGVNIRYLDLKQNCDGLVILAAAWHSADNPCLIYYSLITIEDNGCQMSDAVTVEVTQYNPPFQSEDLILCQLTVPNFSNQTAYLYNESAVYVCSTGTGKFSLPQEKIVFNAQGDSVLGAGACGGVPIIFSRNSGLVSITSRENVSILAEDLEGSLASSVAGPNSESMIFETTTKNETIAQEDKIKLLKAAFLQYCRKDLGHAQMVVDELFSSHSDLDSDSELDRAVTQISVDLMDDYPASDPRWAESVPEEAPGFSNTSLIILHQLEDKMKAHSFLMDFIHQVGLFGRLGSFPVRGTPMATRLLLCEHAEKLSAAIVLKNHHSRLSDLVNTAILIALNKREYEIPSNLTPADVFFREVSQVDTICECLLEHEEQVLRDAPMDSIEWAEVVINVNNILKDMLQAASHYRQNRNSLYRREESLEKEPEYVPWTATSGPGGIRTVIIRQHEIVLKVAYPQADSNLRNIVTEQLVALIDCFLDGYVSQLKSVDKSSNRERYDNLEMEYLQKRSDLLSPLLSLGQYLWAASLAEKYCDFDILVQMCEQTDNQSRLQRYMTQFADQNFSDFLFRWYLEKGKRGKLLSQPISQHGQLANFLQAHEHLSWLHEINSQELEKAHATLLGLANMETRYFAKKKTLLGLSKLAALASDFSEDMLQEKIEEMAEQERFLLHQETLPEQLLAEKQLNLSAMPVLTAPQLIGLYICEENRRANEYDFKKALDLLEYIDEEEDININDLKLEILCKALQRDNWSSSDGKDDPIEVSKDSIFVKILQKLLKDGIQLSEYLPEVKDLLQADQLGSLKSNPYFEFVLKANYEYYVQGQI

Row | Target | NP40-soluble protein abundance (concentration: 1mM) | NP40-soluble protein abundance (concentration: 2mM) | NP40-soluble protein abundance (concentration: 4mM) | NP40-soluble protein abundance (concentration: 6mM) | NP40-soluble protein abundance (concentration: 8mM) | NP40-soluble protein abundance (concentration: 10mM)
1 | CMAS (UniProt Q8NFW8) | 1.04 ± 0.013 | 1.04 ± 0.044 | 1.13 ± 0.018 | 1.18 ± 0.051 | 1.22 ± 0.05 | 1.24 ± 0.031
2 | MOSPD2 (UniProt Q8NHP6) | 1.01 ± 0.019 | 0.959 ± 0.065 | 0.989 ± 0.06 | 0.932 ± 0.011 | 0.91 ± 0.032 | 0.91 ± 0.054
3 | UniProt Q92804 and related entries | 1.07 ± 0.15 | 1.15 ± 0.031 | 1.19 ± 0.17 | 1.27 ± 0.21 | 1.32 ± 0.13 | 1.54 ± 0.23
4 | UniProt Q8NC60 | 0.954 ± 0.035 | 0.998 ± 0.0068 | 0.962 ± 0.04 | 0.965 ± 0.06 | 0.957 ± 0.075 | 0.965 ± 0.1
5 | FBXO30 (UniProt Q8TB52) | 1.03 ± 0.0066 | 1.003 ± 0.0059 | 0.952 ± 0.015 | 0.998 ± 0.012 | 0.975 ± 0.013 | 0.983 ± 0.016
6 | PLA2G15 (UniProt Q8NCC3) | 0.991 ± 0.013 | 0.975 ± 0.013 | 1.02 ± 0.03 | 0.986 ± 0.029 | 0.9922 ± 0.0084 | 0.979 ± 0.021
7 | UniProt Q8TDD1 and related entries | 1.035 ± 0.0098 | 1.05 ± 0.021 | 1.09 ± 0.041 | 1.15 ± 0.04 | 1.16 ± 0.059 | 1.25 ± 0.053
8 | UniProt Q8NG31 and related entries | 1.02 ± 0.041 | 1 ± 0.028 | 0.999 ± 0.048 | 0.926 ± 0.052 | 0.902 ± 0.035 | 0.905 ± 0.064
9 | UniProt Q92574 and related entries | 1 ± 0.031 | 1.04 ± 0.061 | 0.986 ± 0.022 | 0.966 ± 0.029 | 0.937 ± 0.03 | 0.97 ± 0.04
10 | UniProt Q8NG08 and related entries | 0.995 ± 0.021 | 1.01 ± 0.03 | 1 ± 0.019 | 1.01 ± 0.043 | 1.02 ± 0.028 | 1.03 ± 0.019
11 | UniProt Q8TBZ6 | 1.02 ± 0.015 | 1.03 ± 0.085 | 1 ± 0.044 | 0.996 ± 0.038 | 0.984 ± 0.018 | 1.03 ± 0.036
12 | SHCBP1 (UniProt Q8NEM2) | 0.9981 ± 0.0054 | 1.003 ± 0.0021 | 1.02 ± 0.033 | 1.01 ± 0.025 | 0.987 ± 0.014 | 1.01 ± 0.023
13 | UniProt Q8ND04 and related entries | 1.02 ± 0.024 | 0.999 ± 0.025 | 1.03 ± 0.014 | 1.02 ± 0.026 | 1.03 ± 0.052 | 1.02 ± 0.06
14 | IP6K1 (UniProt Q92551) | 0.982 ± 0.021 | 0.996 ± 0.025 | 1 ± 0.059 | 0.978 ± 0.037 | 0.984 ± 0.083 | 1.01 ± 0.1
15 | PRCC (UniProt Q92733) | 0.97 ± 0.012 | 1.09 ± 0.079 | 0.975 ± 0.029 | 1.01 ± 0.027 | 0.932 ± 0.021 | 1.02 ± 0.049
16 | THAP4 (UniProt Q8WY91) | 0.9738 ± 0.0091 | 0.981 ± 0.032 | 0.9413 ± 0.0054 | 0.937 ± 0.017 | 0.97311 ± 0.00095 | 0.923 ± 0.019
17 | UniProt Q92766 and related entries | 1.04 ± 0.026 | 1.04 ± 0.063 | 1.05 ± 0.044 | 1.01 ± 0.02 | 0.995 ± 0.043 | 1.03 ± 0.06
18 | NUP133 (UniProt Q8WUM0) | 0.96 ± 0.011 | 0.922 ± 0.018 | 0.958 ± 0.027 | 0.905 ± 0.018 | 0.9213 ± 0.0033 | 0.932 ± 0.03
19 | NEK7 (UniProt Q8TDX7) | 1.01 ± 0.027 | 0.948 ± 0.051 | 1 ± 0.012 | 1.01 ± 0.056 | 1.06 ± 0.039 | 1.01 ± 0.02

Part of the list above, showing only NP40-soluble protein abundance (concentration: 6mM) and NP40-soluble protein abundance (concentration: 1mM):
Row,Target,NP40-soluble protein abundance (concentration: 6mM),NP40-soluble protein abundance (concentration: 1mM)
14,IP6K1 (UniProt Q92551),0.978 ± 0.037,0.982 ± 0.021
15,PRCC (UniProt Q92733),1.01 ± 0.027,0.97 ± 0.012

From the supplement of paper PMC6411743
